Measured values taken from PMC3796306.
Results are given in words; binding and its absence hold for the method and conditions named. In cells and extracts the contact can be indirect. Some binding calls cover weakened binding; strength is not graded here. Tags and fused reporters may be left off the sequences shown.

By UniProt entry, the sequences of proteins in these tests, tags left out.
UniProt P26599: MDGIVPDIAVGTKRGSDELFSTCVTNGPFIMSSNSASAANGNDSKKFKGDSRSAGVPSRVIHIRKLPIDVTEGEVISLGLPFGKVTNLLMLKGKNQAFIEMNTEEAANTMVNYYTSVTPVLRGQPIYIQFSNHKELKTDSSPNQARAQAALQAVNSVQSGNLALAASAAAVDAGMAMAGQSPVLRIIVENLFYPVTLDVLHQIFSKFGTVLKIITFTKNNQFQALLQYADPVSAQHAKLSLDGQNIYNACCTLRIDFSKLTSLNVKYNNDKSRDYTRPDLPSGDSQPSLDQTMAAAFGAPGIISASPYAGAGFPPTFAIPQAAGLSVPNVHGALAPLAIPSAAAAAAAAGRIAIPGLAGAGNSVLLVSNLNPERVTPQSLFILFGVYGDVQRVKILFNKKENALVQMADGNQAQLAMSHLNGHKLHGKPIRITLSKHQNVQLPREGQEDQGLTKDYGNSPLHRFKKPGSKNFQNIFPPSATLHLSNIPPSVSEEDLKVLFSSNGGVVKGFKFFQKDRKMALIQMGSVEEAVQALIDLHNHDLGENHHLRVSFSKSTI

Molecular target: T1, Histidine-tagged hnRNP L (human) (UniProt P14866)
T1 sequence: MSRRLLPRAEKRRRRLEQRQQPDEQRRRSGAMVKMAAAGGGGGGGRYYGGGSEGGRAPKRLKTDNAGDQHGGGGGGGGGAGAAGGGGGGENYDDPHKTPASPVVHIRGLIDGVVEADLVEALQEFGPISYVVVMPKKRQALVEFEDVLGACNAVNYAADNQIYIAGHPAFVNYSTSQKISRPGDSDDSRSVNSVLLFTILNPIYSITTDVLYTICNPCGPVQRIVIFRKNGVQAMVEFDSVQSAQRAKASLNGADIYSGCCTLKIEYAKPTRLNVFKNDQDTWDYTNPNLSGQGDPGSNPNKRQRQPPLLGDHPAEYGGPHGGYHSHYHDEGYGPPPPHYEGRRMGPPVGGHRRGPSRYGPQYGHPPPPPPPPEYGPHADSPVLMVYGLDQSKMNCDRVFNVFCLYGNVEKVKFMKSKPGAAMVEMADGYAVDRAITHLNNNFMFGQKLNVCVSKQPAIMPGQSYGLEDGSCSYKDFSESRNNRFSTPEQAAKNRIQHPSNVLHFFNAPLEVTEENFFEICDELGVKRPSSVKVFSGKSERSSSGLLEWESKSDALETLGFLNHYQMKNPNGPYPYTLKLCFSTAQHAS
Assay: co-IP; 100 ug nuclear extract of transfected SH-SY5Y cells precipitated with 2 ug anti-His-tag antibody (Nuclear Complex Co-IP kit), in the presence of RNase A, NaCl up to 150 mM; protein G beads; blot for endogenous PTB

binding: binds
Substance: polypyrimidine tract-binding protein (PTB) (from UniProt P26599 1-557)
